No constants are given. Whether binding was seen depends on the method and setting. For some of these results: A result given as binding can be weak or reduced; the word gives no strength.
Columns and labels:
[1] = target: T1, recombinant Gerbich-type glycophorin C expressed in CHO cells (human) (UniProt P04921); test: flow cytometry on cells; Region II (4 ug) incubated with 1x10^6 CHO cells expressing recombinant GPC or its deletion forms Gerbich and Yus; detected with rabbit anti-Region II serum and FITC anti-rabbit Ig; only the binder purified
T1 sequence: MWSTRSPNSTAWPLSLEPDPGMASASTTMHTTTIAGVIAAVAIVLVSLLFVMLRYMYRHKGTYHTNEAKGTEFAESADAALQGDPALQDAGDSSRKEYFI

[2] = target: T2, recombinant glycophorin C expressed in CHO cells (human) (UniProt P04921); test: as above
T2 sequence: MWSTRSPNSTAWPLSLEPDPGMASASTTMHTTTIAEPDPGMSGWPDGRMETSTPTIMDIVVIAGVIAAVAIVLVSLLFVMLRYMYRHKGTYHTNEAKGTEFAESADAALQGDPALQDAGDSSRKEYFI

[3] = target: T3, glycophorin D, the truncated form of GPC lacking a.a. residues 1-21 (human (endogenous in erythrocytes)) (UniProt P04921); test: far-Western, overlay or dot blot; proteins of normal or Gerbich erythrocyte membranes resolved by SDS-PAGE, blotted on nitrocellulose, overlaid with Region II (50ug/ml) in TBS overnight at room temperature; detected with anti-c-myc MoAb 9E10; only the binder purified
T3 sequence: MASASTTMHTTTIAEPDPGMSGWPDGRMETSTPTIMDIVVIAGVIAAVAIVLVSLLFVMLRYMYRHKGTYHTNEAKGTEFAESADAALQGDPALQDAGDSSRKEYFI

[4] = target: T4, Gerbich-type glycophorin C, endogenous, of Gerbich-negative human erythrocytes (human (endogenous in erythrocytes)) (UniProt P04921); test: as above
T4 sequence: T1 sequence

Substance: recombinant, baculovirus-expressed Region II of P. falciparum EBA-140 ligand (domain or fragment)
- binding [1]: no binding (tested: 4 ug)
- binding [2]: binds weakly
- binding [3]: no binding (tested: 50ug/ml)
- binding [4]: no binding (tested: 50ug/ml)

Source: PMC4294638
